Data: PMC3440322
Results are given in words; binding and its absence hold for the method and conditions named. Binding seen in cells or lysates may run through a third protein. Some entries that bind do so weakly or less than the wild type. For some assays here: Where a sequence is shown, tags or fusion partners need not be part of it.

Chains of the proteins cited; added tags and fusions are not shown.
UniProt Q9JLV1: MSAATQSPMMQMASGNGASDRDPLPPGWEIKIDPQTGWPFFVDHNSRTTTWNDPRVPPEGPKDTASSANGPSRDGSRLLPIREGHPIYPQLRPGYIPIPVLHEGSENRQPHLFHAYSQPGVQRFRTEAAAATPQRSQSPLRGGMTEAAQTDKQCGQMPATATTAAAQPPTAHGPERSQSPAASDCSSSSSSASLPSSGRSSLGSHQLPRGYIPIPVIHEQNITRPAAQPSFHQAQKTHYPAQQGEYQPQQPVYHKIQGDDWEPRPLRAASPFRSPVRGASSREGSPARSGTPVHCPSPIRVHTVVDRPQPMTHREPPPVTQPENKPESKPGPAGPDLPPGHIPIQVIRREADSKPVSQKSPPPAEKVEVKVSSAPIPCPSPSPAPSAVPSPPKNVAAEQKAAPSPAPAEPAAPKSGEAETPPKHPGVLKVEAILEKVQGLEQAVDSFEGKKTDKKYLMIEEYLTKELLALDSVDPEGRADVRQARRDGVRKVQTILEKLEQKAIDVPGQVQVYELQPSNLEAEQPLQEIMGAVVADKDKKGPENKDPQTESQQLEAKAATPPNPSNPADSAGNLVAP
UniProt O95817: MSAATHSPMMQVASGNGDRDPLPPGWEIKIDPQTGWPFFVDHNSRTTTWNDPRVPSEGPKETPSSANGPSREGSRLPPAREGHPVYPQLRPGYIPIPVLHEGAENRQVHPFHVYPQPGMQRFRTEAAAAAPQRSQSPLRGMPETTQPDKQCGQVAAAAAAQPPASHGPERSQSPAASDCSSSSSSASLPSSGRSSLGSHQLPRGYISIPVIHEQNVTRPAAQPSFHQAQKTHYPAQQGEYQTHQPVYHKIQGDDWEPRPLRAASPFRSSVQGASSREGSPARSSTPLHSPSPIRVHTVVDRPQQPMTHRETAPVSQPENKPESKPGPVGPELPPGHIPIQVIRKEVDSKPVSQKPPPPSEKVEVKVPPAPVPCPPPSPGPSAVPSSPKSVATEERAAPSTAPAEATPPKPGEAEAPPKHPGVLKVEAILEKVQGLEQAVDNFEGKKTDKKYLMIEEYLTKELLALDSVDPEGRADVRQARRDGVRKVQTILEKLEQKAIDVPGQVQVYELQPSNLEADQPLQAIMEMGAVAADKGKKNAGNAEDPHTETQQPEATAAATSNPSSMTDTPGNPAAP

What was measured:
[1] = molecular target: T1, JCV large T-antigen (T-Ag), constitutively produced in BSB8 cells (JC virus (JCV)) (UniProt P03072); experiment: co-IP; large T-Ag immunoprecipitated with a monoclonal antibody (0.4 µg/IP) from BSB8 whole cell extracts, protein A/G beads, 1% NP-40-TNN buffer (150 mM NaCl, 40 mM Tris-HCl pH 7.4, 1 mM DTT, 1 mM EDTA), overnight 4°C; Western blot with anti-Bag3
T1 sequence: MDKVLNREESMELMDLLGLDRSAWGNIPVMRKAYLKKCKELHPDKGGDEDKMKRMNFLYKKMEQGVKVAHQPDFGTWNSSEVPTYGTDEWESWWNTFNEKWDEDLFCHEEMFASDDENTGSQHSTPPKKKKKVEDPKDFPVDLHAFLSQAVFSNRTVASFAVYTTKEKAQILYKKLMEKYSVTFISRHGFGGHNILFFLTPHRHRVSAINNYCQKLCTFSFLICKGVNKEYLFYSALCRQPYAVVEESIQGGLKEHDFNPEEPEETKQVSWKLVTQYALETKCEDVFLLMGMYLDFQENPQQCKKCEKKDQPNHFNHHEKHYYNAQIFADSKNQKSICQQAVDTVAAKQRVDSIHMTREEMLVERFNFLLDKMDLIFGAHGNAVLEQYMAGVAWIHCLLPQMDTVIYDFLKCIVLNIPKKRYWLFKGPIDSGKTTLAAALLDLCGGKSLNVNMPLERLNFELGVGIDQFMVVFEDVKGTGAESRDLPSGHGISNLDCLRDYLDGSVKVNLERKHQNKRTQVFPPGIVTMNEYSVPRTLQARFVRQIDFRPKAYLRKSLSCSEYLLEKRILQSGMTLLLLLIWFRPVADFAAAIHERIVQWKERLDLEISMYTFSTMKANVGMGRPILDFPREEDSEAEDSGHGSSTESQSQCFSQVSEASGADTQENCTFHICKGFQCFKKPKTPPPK

[2] = molecular target: T2, GST-large T antigen, full-length (pGEX2T-LT-(1–688)) (JC virus (JCV)) (UniProt P03072); experiment: pull-down; 2 µg GST fusion protein immobilized on Sepharose beads, incubated with 0.5 mg U-87MG whole-cell extract overnight at 4°C in 50 mM Tris-HCl pH 7.4, 150 mM NaCl, 0.5% Nonidet P-40; Western blot with anti-Bag3; only the target purified
T2 sequence: T1 sequence

Substance | binding [1] | binding [2]
Bag3, endogenous in BSB8 cells (from UniProt Q9JLV1 1-577) | binds | 
Bag3, endogenous in U-87MG cells (from UniProt O95817 1-575) |  | binds
